# Reference: PubChem BioAssay AID328 (DTP/NCI, 2004)
# The list does not hold the whole screen: it covers a few groups of compounds. Not every dose and run of a compound is shown. T/C: endpoint of the treated group in % of that of the vehicle group. Some entries give survivors of the animals treated and no T/C: the source files T/C as zero there, which appears to mark a toxic dose or a test without result, not a measured value. Some doses without a T/C left all or most animals alive at the check, yet need not have been tolerated: the source hardly ever lists a survival T/C far under the control, and the zero likely stands for such cases as well. Survivors were counted at the toxicity check, usually on the fifth day, unless a day is given; later deaths do not show. Schedule codes are those of the source, taken here to give the interval after Q, in days (D) or hours (H), and the number of doses after X. Where survival is the endpoint, the PubChem record calls one and a half times the control and up active, and a quarter to a half above the control has no call in these data; cut-offs in other NCI protocols can differ. Some T/C values carry the count of animals alive at the toxicity check (mostly the fifth day); where neither a count nor a note follows, no animal had died by that day. Some doses were run more than once; the values are given in rising order. Some entries show no survivor count and are marked so; the dose need not have been tolerated.
# System: BDF1 mice, P388 leukemia ip, median survival T/C
# Assay: NCI In Vivo Anticancer Drug Screen. Data for tumor model P388 Leukemia (intraperitoneal) in B6D2F1 (BDF1) mice
# Details: T/C endpoint: median survival time, higher T/C = longer survival
# In short: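 Antitumour effect was judged in vivo: survival in drug-treated mice, normalised to that of vehicle-dosed controls, gives the reported T/C.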
# [1] = dose: 25.0 mg/kg/injection, schedule: Q01DX009 (ip), vehicle: saline with Tween-80
# [2] = dose: 25.0 mg/kg/injection, schedule: Q01DX009 (ip), vehicle: saline
# [3] = dose: 25.0 mg/kg/injection, schedule: Q04DX003 (ip), vehicle: saline
# [4] = dose: 50.0 mg/kg/injection, schedule: Q01DX009 (ip), vehicle: saline with Tween-80
# [5] = dose: 50.0 mg/kg/injection, schedule: Q01DX009 (ip), vehicle: saline
# [6] = dose: 50.0 mg/kg/injection, schedule: Q04DX003 (ip), vehicle: saline
# [7] = dose: 100.0 mg/kg/injection, schedule: Q01DX009 (ip), vehicle: saline with Tween-80
# [8] = dose: 100.0 mg/kg/injection, schedule: Q01DX009 (ip), vehicle: saline
# [9] = dose: 100.0 mg/kg/injection, schedule: Q04DX003 (ip), vehicle: saline
# [10] = dose: 200.0 mg/kg/injection, schedule: Q04DX003 (ip), vehicle: saline
# [11] = dose: 400.0 mg/kg/injection, schedule: Q04DX003 (ip), vehicle: saline
# [12] = dose: 6.25 mg/kg/injection, schedule: Q01DX009 (ip), vehicle: saline
# [13] = dose: 12.5 mg/kg/injection, schedule: Q01DX009 (ip), vehicle: saline
structure (smiles),measurement,setting,value
CCOC(=O)C(CCSC)NC(=O)OCCNCCCl (stereo not given),T/C,"dose: 20.0 mg/kg/injection, schedule: Q04DX003 (ip), vehicle: saline",127 % of control
same,T/C,[1],120 % of control
same,T/C,[2],185 % of control
same,T/C,[3],127 % of control
same,T/C,"dose: 30.0 mg/kg/injection, schedule: Q04DX003 (ip), vehicle: saline",140 % of control
same,T/C,"dose: 33.0 mg/kg/injection, schedule: Q01DX009 (ip), vehicle: saline",142 % of control
same,T/C,"dose: 45.0 mg/kg/injection, schedule: Q04DX003 (ip), vehicle: saline",150 % of control
same,T/C,[4],129 % of control
same,T/C,[5],142 and 196 % of control
same,T/C,[6],136 % of control
same,T/C,"dose: 66.0 mg/kg/injection, schedule: Q01DX009 (ip), vehicle: saline with Tween-80",161 % of control
same,T/C,"dose: 66.0 mg/kg/injection, schedule: Q01DX009 (ip), vehicle: saline",150 % of control
same,T/C,"dose: 66.0 mg/kg/injection, schedule: Q04DX003 (ip), vehicle: saline",150 % of control
same,T/C,"dose: 75.0 mg/kg/injection, schedule: Q01DX009 (ip), vehicle: saline",92 % of control
same,T/C,[7],119 and 141 % of control
same,T/C,[8],154 % of control
same,survivor count,[8],3 of 6
same,T/C,[9],"154, 159 [5 of 6 alive], 183 % of control"
same,survivor count,"dose: 150.0 mg/kg/injection, schedule: Q01DX009 (ip), vehicle: saline with Tween-80",2 of 6
same,T/C,"dose: 150.0 mg/kg/injection, schedule: Q01DX009 (ip), vehicle: saline",172 % of control
same,T/C,"dose: 150.0 mg/kg/injection, schedule: Q04DX003 (ip), vehicle: saline",122 % of control
same,T/C,[10],200 % of control
same,survivor count,[10],3 of 6
same,survivor count,[11],0 of 6
O=P(Nc1ccccn1)(N1CC1)N1CC1,T/C,"dose: 1.1 mg/kg/injection, schedule: Q01DX009 (ip), vehicle: Klucel (hydroxypropylcellulose) (HPC)",109 % of control [5 of 6 alive]
same,T/C,"dose: 1.7 mg/kg/injection, schedule: Q01DX009 (ip), vehicle: Klucel (hydroxypropylcellulose) (HPC)",122 % of control
same,T/C,"dose: 2.5 mg/kg/injection, schedule: Q01DX009 (ip), vehicle: Klucel (hydroxypropylcellulose) (HPC)",136 % of control
same,T/C,"dose: 2.6 mg/kg/injection, schedule: Q01DX009 (ip), vehicle: Klucel (hydroxypropylcellulose) (HPC)",135 % of control
same,T/C,"dose: 3.1 mg/kg/injection, schedule: Q04DX003 (ip), vehicle: Klucel (hydroxypropylcellulose) (HPC)",145 % of control
same,T/C,"dose: 4.0 mg/kg/injection, schedule: Q01DX009 (ip), vehicle: Klucel (hydroxypropylcellulose) (HPC)",185 % of control
same,T/C,"dose: 4.7 mg/kg/injection, schedule: Q04DX003 (ip), vehicle: Klucel (hydroxypropylcellulose) (HPC)",154 % of control [5 of 6 alive]
same,T/C,"dose: 5.0 mg/kg/injection, schedule: Q01DX009 (ip), vehicle: Klucel (hydroxypropylcellulose) (HPC)",125 % of control
same,T/C,"dose: 6.1 mg/kg/injection, schedule: Q01DX009 (ip), vehicle: Klucel (hydroxypropylcellulose) (HPC)",220 % of control
same,T/C,"dose: 7.2 mg/kg/injection, schedule: Q04DX003 (ip), vehicle: Klucel (hydroxypropylcellulose) (HPC)",154 % of control
same,T/C,"dose: 9.37 mg/kg/injection, schedule: Q01DX009 (ip), vehicle: Klucel (hydroxypropylcellulose) (HPC)",204 and 272 % of control
same,T/C,"dose: 10.0 mg/kg/injection, schedule: Q01DX009 (ip), vehicle: Klucel (hydroxypropylcellulose) (HPC)",153 % of control [5 of 6 alive]
same,T/C,"dose: 10.0 mg/kg/injection, schedule: Q04DX003 (ip), vehicle: Klucel (hydroxypropylcellulose) (HPC)",168 % of control
same,survivor count,"dose: 14.0 mg/kg/injection, schedule: Q01DX009 (ip), vehicle: Klucel (hydroxypropylcellulose) (HPC)",5 of 6
same,T/C,"dose: 16.5 mg/kg/injection, schedule: Q04DX003 (ip), vehicle: Klucel (hydroxypropylcellulose) (HPC)",200 and 268 % of control
same,survivor count,"dose: 18.75 mg/kg/injection, schedule: Q01DX009 (ip), vehicle: Klucel (hydroxypropylcellulose) (HPC)",6 of 6
same,T/C,"dose: 25.0 mg/kg/injection, schedule: Q04DX003 (ip), vehicle: Klucel (hydroxypropylcellulose) (HPC)",95 and 272 % of control
same,T/C,[3],300 % of control
same,survivor count,"dose: 37.5 mg/kg/injection, schedule: Q01DX009 (ip), vehicle: Klucel (hydroxypropylcellulose) (HPC)",4 of 6
same,T/C,"dose: 37.5 mg/kg/injection, schedule: Q04DX003 (ip), vehicle: Klucel (hydroxypropylcellulose) (HPC)",95 and 95 % of control [5 of 6 alive]
same,survivor count,[6],5 of 6
same,survivor count,[9],1 of 6
NNC(=O)NP(=O)(NC(=O)NN)NC(=O)NN,T/C,[1],100 % of control
same,T/C,[4],110 % of control
same,T/C,[7],117 % of control
same,survivor count,"dose: 200.0 mg/kg/injection, schedule: Q01DX009 (ip), vehicle: saline with Tween-80",4 of 6
O=C(O)c1c([N+](=O)[O-])cc([N+](=O)[O-])c(-c2c([N+](=O)[O-])cc([N+](=O)[O-])c(C(=O)O)c2[N+](=O)[O-])c1[N+](=O)[O-].O=C1CC2OCC=C3CN4CCC56c7ccccc7N1C5C2C3CC46,T/C,"dose: 0.78 mg/kg/injection, schedule: Q01DX009 (ip), vehicle: Klucel (hydroxypropylcellulose) (HPC)",104 % of control [survivor count not shown]
same,T/C,"dose: 1.56 mg/kg/injection, schedule: Q01DX009 (ip), vehicle: Klucel (hydroxypropylcellulose) (HPC)",100 % of control [survivor count not shown]
same,T/C,"dose: 3.12 mg/kg/injection, schedule: Q01DX009 (ip), vehicle: Klucel (hydroxypropylcellulose) (HPC)",104 % of control [survivor count not shown]
same,T/C,"dose: 4.5 mg/kg/injection, schedule: Q04DX003 (ip), vehicle: Klucel (hydroxypropylcellulose) (HPC)",110 % of control [survivor count not shown]
same,T/C,"dose: 6.25 mg/kg/injection, schedule: Q01DX009 (ip), vehicle: Klucel (hydroxypropylcellulose) (HPC)",100 % of control [survivor count not shown]
same,T/C,"dose: 9.0 mg/kg/injection, schedule: Q04DX003 (ip), vehicle: Klucel (hydroxypropylcellulose) (HPC)",110 % of control [survivor count not shown]
O=C(Nc1ncc([N+](=O)[O-])s1)c1cc([N+](=O)[O-])cc([N+](=O)[O-])c1,T/C,[12],92 % of control
same,T/C,[13],99 % of control
same,T/C,[2],100 % of control
same,T/C,[5],103 % of control
NP(=O)(N(CCCl)CCCl)N1CC1 (stereo not given),T/C,[12],189 % of control
same,T/C,[13],224 % of control
same,T/C,"dose: 25.0 mg/kg/injection, schedule: Q01DX001 (ip), vehicle: saline",130 % of control
same,T/C,[2],137 % of control
same,T/C,[3],226 % of control
same,T/C,"dose: 25.0 mg/kg/injection, schedule: Q08DX002 (ip), vehicle: saline",241 % of control
same,T/C,"dose: 50.0 mg/kg/injection, schedule: Q01DX001 (ip), vehicle: saline",168 % of control
same,survivor count,[5],6 of 6
same,T/C,[6],140 % of control
same,T/C,"dose: 50.0 mg/kg/injection, schedule: Q08DX002 (ip), vehicle: saline",216 % of control
same,T/C,"dose: 100.0 mg/kg/injection, schedule: Q01DX001 (ip), vehicle: saline",150 % of control
same,survivor count,[8],5 of 6
same,survivor count,[9],5 of 6
same,survivor count,"dose: 100.0 mg/kg/injection, schedule: Q08DX002 (ip), vehicle: saline",5 of 6
same,survivor count,"dose: 200.0 mg/kg/injection, schedule: Q01DX001 (ip), vehicle: saline",2 of 6
same,survivor count,[10],0 of 6
same,survivor count,"dose: 200.0 mg/kg/injection, schedule: Q08DX002 (ip), vehicle: saline",1 of 6
same,survivor count,"dose: 400.0 mg/kg/injection, schedule: Q01DX001 (ip), vehicle: saline",0 of 6
same,survivor count,[11],0 of 6
same,survivor count,"dose: 400.0 mg/kg/injection, schedule: Q08DX002 (ip), vehicle: saline",0 of 6
